{"source": "paper PMC5433425", "about": "(PeerJ, 2017)", "test_system": "E. coli AG100A", "note": "Like-named read-outs stand apart in the source and are kept apart here. The source gives many values for each of these; only a part stands here.", "data": [{"smiles": "CC[n+]1c(-c2ccccc2)c2cc(N)ccc2c2ccc(N)cc21", "note": "[EtBr, ethidium bromide]", "values": [{"measurement": "EtBr fluorescence", "setting": "EtBr 2 µg/ml, cycle 27", "result": 75.9898}, {"measurement": "EtBr fluorescence", "setting": "EtBr 2 µg/ml, cycle 28", "result": 77.3832}, {"measurement": "EtBr fluorescence", "setting": "EtBr 2 µg/ml, cycle 29", "result": 78.2202}, {"measurement": "EtBr fluorescence", "setting": "EtBr 2 µg/ml, cycle 30", "result": 79.962}, {"measurement": "EtBr fluorescence", "setting": "EtBr 3 µg/ml, cycle 1", "result": 23.6289}, {"measurement": "EtBr fluorescence", "setting": "EtBr 3 µg/ml, cycle 2", "result": 31.0367}, {"measurement": "EtBr fluorescence", "setting": "EtBr 3 µg/ml, cycle 3", "result": 36.8789}, {"measurement": "EtBr fluorescence", "setting": "EtBr 3 µg/ml, cycle 4", "result": 42.0548}, {"measurement": "EtBr fluorescence", "setting": "EtBr 3 µg/ml, cycle 5", "result": 46.8457}, {"measurement": "EtBr fluorescence", "setting": "EtBr 3 µg/ml, cycle 6", "result": 50.4969}, {"measurement": "EtBr fluorescence", "setting": "EtBr 3 µg/ml, cycle 7", "result": 53.739}, {"measurement": "EtBr fluorescence", "setting": "EtBr 3 µg/ml, cycle 8", "result": 57.7}, {"measurement": "EtBr fluorescence", "setting": "EtBr 3 µg/ml, cycle 9", "result": 60.2188}, {"measurement": "EtBr fluorescence", "setting": "EtBr 3 µg/ml, cycle 10", "result": 63.6802}, {"measurement": "EtBr fluorescence", "setting": "EtBr 3 µg/ml, cycle 11", "result": 66.3455}, {"measurement": "EtBr fluorescence", "setting": "EtBr 3 µg/ml, cycle 12", "result": 69.0775}, {"measurement": "EtBr fluorescence", "setting": "EtBr 3 µg/ml, cycle 13", "result": 71.7371}, {"measurement": "EtBr fluorescence", "setting": "EtBr 3 µg/ml, cycle 14", "result": 74.2494}, {"measurement": "EtBr fluorescence", "setting": "EtBr 3 µg/ml, cycle 15", "result": 76.7699}, {"measurement": "EtBr fluorescence", "setting": "EtBr 3 µg/ml, cycle 16", "result": 78.313}, {"measurement": "EtBr fluorescence", "setting": "EtBr 3 µg/ml, cycle 17", "result": 79.87}, {"measurement": "EtBr fluorescence", "setting": "EtBr 3 µg/ml, cycle 18", "result": 81.7847}, {"measurement": "EtBr fluorescence", "setting": "EtBr 3 µg/ml, cycle 19", "result": 83.689}, {"measurement": "EtBr fluorescence", "setting": "EtBr 3 µg/ml, cycle 20", "result": 85.3511}, {"measurement": "EtBr fluorescence", "setting": "EtBr 3 µg/ml, cycle 21", "result": 87.0236}, {"measurement": "EtBr fluorescence", "setting": "EtBr 3 µg/ml, cycle 22", "result": 88.6448}, {"measurement": "EtBr fluorescence", "setting": "EtBr 3 µg/ml, cycle 23", "result": 90.6444}, {"measurement": "EtBr fluorescence", "setting": "EtBr 3 µg/ml, cycle 24", "result": 91.9307}, {"measurement": "EtBr fluorescence", "setting": "EtBr 3 µg/ml, cycle 25", "result": 93.5789}, {"measurement": "EtBr fluorescence", "setting": "EtBr 3 µg/ml, cycle 26", "result": 96.0079}, {"measurement": "EtBr fluorescence", "setting": "EtBr 3 µg/ml, cycle 27", "result": 98.0273}, {"measurement": "EtBr fluorescence", "setting": "EtBr 3 µg/ml, cycle 28", "result": 99.4521}, {"measurement": "EtBr fluorescence", "setting": "EtBr 3 µg/ml, cycle 29", "result": 99.9756}, {"measurement": "EtBr fluorescence", "setting": "EtBr 3 µg/ml, cycle 30", "result": 100}, {"measurement": "EtBr fluorescence", "setting": "EtBr 4 µg/ml, cycle 1", "result": 31.8459}, {"measurement": "EtBr fluorescence", "setting": "EtBr 4 µg/ml, cycle 2", "result": 43.4753}, {"measurement": "EtBr fluorescence", "setting": "EtBr 4 µg/ml, cycle 3", "result": 52.9128}, {"measurement": "EtBr fluorescence", "setting": "EtBr 4 µg/ml, cycle 4", "result": 60.4602}, {"measurement": "EtBr fluorescence", "setting": "EtBr 4 µg/ml, cycle 5", "result": 67.4623}, {"measurement": "EtBr fluorescence", "setting": "EtBr 4 µg/ml, cycle 6", "result": 72.9436}, {"measurement": "EtBr fluorescence", "setting": "EtBr 4 µg/ml, cycle 7", "result": 78.0206}, {"measurement": "EtBr fluorescence", "setting": "EtBr 4 µg/ml, cycle 8", "result": 82.7408}, {"measurement": "EtBr fluorescence", "setting": "EtBr 4 µg/ml, cycle 9", "result": 87.7788}, {"measurement": "EtBr fluorescence", "setting": "EtBr 4 µg/ml, cycle 10", "result": 91.8699}, {"measurement": "EtBr fluorescence", "setting": "EtBr 4 µg/ml, cycle 11", "result": 96.4154}, {"measurement": "EtBr fluorescence", "setting": "EtBr 4 µg/ml, cycle 12", "result": 99.6125}, {"measurement": "EtBr fluorescence", "setting": "EtBr 4 µg/ml, cycle 13", "result": 100}, {"measurement": "EtBr fluorescence", "setting": "EtBr 4 µg/ml, cycle 14", "result": 100}, {"measurement": "EtBr fluorescence", "setting": "EtBr 4 µg/ml, cycle 15", "result": 100}, {"measurement": "EtBr fluorescence", "setting": "EtBr 4 µg/ml, cycle 16", "result": 100}, {"measurement": "EtBr fluorescence", "setting": "EtBr 4 µg/ml, cycle 17", "result": 100}, {"measurement": "EtBr fluorescence", "setting": "EtBr 4 µg/ml, cycle 18", "result": 100}, {"measurement": "EtBr fluorescence", "setting": "EtBr 4 µg/ml, cycle 19", "result": 100}, {"measurement": "EtBr fluorescence", "setting": "EtBr 4 µg/ml, cycle 20", "result": 100}, {"measurement": "EtBr fluorescence", "setting": "EtBr 4 µg/ml, cycle 21", "result": 100}, {"measurement": "EtBr fluorescence", "setting": "EtBr 4 µg/ml, cycle 22", "result": 100}, {"measurement": "EtBr fluorescence", "setting": "EtBr 4 µg/ml, cycle 23", "result": 100}, {"measurement": "EtBr fluorescence", "setting": "EtBr 4 µg/ml, cycle 24", "result": 100}, {"measurement": "EtBr fluorescence", "setting": "EtBr 4 µg/ml, cycle 25", "result": 100}, {"measurement": "EtBr fluorescence", "setting": "EtBr 4 µg/ml, cycle 26", "result": 100}, {"measurement": "EtBr fluorescence", "setting": "EtBr 4 µg/ml, cycle 27", "result": 100}, {"measurement": "EtBr fluorescence", "setting": "EtBr 4 µg/ml, cycle 28", "result": 100}, {"measurement": "EtBr fluorescence", "setting": "EtBr 4 µg/ml, cycle 29", "result": 100}, {"measurement": "EtBr fluorescence", "setting": "EtBr 4 µg/ml, cycle 30", "result": 100}, {"measurement": "EtBr fluorescence", "setting": "EtBr 5 µg/ml, cycle 1", "result": 43.7119}, {"measurement": "EtBr fluorescence", "setting": "EtBr 5 µg/ml, cycle 2", "result": 58.937}, {"measurement": "EtBr fluorescence", "setting": "EtBr 5 µg/ml, cycle 3", "result": 72.1422}, {"measurement": "EtBr fluorescence", "setting": "EtBr 5 µg/ml, cycle 4", "result": 81.4934}, {"measurement": "EtBr fluorescence", "setting": "EtBr 5 µg/ml, cycle 5", "result": 91.0328}, {"measurement": "EtBr fluorescence", "setting": "EtBr 5 µg/ml, cycle 6", "result": 98.7227}, {"measurement": "EtBr fluorescence", "setting": "EtBr 5 µg/ml, cycle 7", "result": 100}, {"measurement": "EtBr fluorescence", "setting": "EtBr 5 µg/ml, cycle 8", "result": 100}, {"measurement": "EtBr fluorescence", "setting": "EtBr 5 µg/ml, cycle 9", "result": 100}, {"measurement": "EtBr fluorescence", "setting": "EtBr 5 µg/ml, cycle 10", "result": 100}, {"measurement": "EtBr fluorescence", "setting": "EtBr 5 µg/ml, cycle 11", "result": 100}, {"measurement": "EtBr fluorescence", "setting": "EtBr 5 µg/ml, cycle 12", "result": 100}, {"measurement": "EtBr fluorescence", "setting": "EtBr 5 µg/ml, cycle 13", "result": 100}, {"measurement": "EtBr fluorescence", "setting": "EtBr 5 µg/ml, cycle 14", "result": 100}, {"measurement": "EtBr fluorescence", "setting": "EtBr 5 µg/ml, cycle 15", "result": 100}, {"measurement": "EtBr fluorescence", "setting": "EtBr 5 µg/ml, cycle 16", "result": 100}, {"measurement": "EtBr fluorescence", "setting": "EtBr 5 µg/ml, cycle 17", "result": 100}, {"measurement": "EtBr fluorescence", "setting": "EtBr 5 µg/ml, cycle 18", "result": 100}, {"measurement": "EtBr fluorescence", "setting": "EtBr 5 µg/ml, cycle 19", "result": 100}, {"measurement": "EtBr fluorescence", "setting": "EtBr 5 µg/ml, cycle 20", "result": 100}, {"measurement": "EtBr fluorescence", "setting": "EtBr 5 µg/ml, cycle 21", "result": 100}, {"measurement": "EtBr fluorescence", "setting": "EtBr 5 µg/ml, cycle 22", "result": 100}, {"measurement": "EtBr fluorescence", "setting": "EtBr 5 µg/ml, cycle 23", "result": 100}, {"measurement": "EtBr fluorescence", "setting": "EtBr 5 µg/ml, cycle 24", "result": 100}, {"measurement": "EtBr fluorescence", "setting": "EtBr 5 µg/ml, cycle 25", "result": 100}, {"measurement": "EtBr fluorescence", "setting": "EtBr 5 µg/ml, cycle 26", "result": 100}, {"measurement": "EtBr fluorescence", "setting": "EtBr 5 µg/ml, cycle 27", "result": 100}, {"measurement": "EtBr fluorescence", "setting": "EtBr 5 µg/ml, cycle 28", "result": 100}, {"measurement": "EtBr fluorescence", "setting": "EtBr 5 µg/ml, cycle 29", "result": 100}, {"measurement": "EtBr fluorescence", "setting": "EtBr 5 µg/ml, cycle 30", "result": 100}]}]}
